The test has as its target murine ICAM-1 (murine) (UniProt P13597). Put plainly: BIAcore.

By UniProt entry, the sequences of proteins in these tests, tags left out. Residues count along the entry.
UniProt P13597, residues 28-485: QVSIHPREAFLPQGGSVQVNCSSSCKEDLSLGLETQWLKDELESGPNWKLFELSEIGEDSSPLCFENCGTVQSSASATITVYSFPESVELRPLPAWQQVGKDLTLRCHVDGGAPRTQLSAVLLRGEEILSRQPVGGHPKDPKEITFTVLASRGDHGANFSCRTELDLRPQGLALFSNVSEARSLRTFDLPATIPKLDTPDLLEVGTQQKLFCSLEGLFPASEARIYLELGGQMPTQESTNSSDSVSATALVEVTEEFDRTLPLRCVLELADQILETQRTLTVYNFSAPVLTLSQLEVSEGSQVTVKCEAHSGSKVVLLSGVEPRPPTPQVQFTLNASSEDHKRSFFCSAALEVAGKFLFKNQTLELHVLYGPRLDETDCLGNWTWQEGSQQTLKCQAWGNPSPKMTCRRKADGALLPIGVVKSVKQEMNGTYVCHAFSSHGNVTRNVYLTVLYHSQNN

The results in this text go back to patent US7674604.

No constants are given. Whether binding was seen depends on the method and setting. Some binding calls cover weakened binding; strength is not graded here.

B1: recombinant soluble αL I-domain K287C/K294C (G128 to Y307) stabilized in the open conformation, made in E. coli (receptor)
chain: GNVDLVFLFDGSMSLQPDEFQKILDFMKDVMKKLSNTSYQFAAVQFSTSYKTEFDFSDYVKRKDPDALLKHVKHMLLLTNTFGAINYVATEVFREELGARPDATKVLIIITDGEATDSGNIDAAKDIIRYIIGIGKHFQTKESQETLHKFASKPASEFVCILDTFECLKDLFTELQKKIY
modifications: chain 1: disulfide between C160 and C167 (mature C287, C294)
As to B1, the binding entry is listed as “binds”.
